Measured values reported in PubChem BioAssay AID662 (National Center for Advancing Translational Sciences (NCATS), 2007).
The other results are listed elsewhere or left out. These are further read-outs of the screen, such as a control signal, another cell line or another target. No call is given for them. Compounds called inactive in the main read-out are mostly missing here. The note in brackets gives the kind of curve behind each potency; many fits are weak.

assay: Cell signaling CRE-BLA (Fsk stim); conditions: CHO CRE-bla reporter (cAMP response element driving beta-lactamase), forskolin EC10, beta-lactamase ratio; measured here: 460 nm blue channel
Outline: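 Using CellSensor CRE-bla CHO cells in Opti-MEM with 0.5% dialyzed FBS, compounds were titrated with EC10 NKH 477 for 3 h at 37 °C. CCF4 ratio (460/530 nm) gave %Activity; AC50 derived.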

Structure (SMILES) | AC50
OC[C@@H]1O[C@@H](n2cnc3c(NCc4ccco4)ncnc32)[C@H](O)[C@H]1O | 5.01 µM [rising, full curve, poor fit]
COc1ccc2nc(NC(=O)CSc3nc4cccnc4n3C)sc2c1 | 0.398 µM [rising, full curve]
COc1ccc(C(CNC(=O)c2ccc(-n3cnnn3)cc2)N2CCOCC2)cc1 (centres undefined) | 0.158 µM [falling, full curve]
CC(C#N)Sc1ncnc2sc3c(c12)CCC3 (centres undefined) | 12.6 µM [rising, single point]
Cc1cc(CN2C(=O)c3ccccc3C2=O)cc(N2CCOCC2)c1 | 3.98 µM [rising, single point]
CCOc1cc(NC(=O)c2ccco2)c(OCC)cc1NC(=O)Cc1ccc(OC)c(OC)c1 | 10 µM [rising, partial curve]
CSc1nc2c(c(=O)n1-c1ccc(C)cc1)SCC2 | 6.31 µM [rising, full curve]
COc1ccc(CNC(=O)CCS(=O)(=O)c2cccc3nonc23)cc1 | 5.01 µM [rising, single point]
O=C(O)c1cc(-c2ccncc2)nc2ccc(S(=O)(=O)N3CCOCC3)cc12 | 25.1 µM [falling, single point]
O=C(c1ccco1)N1CCN(c2ncnc3c2oc2ccccc23)CC1 | 10 µM [rising, single point]
COc1ccc(-c2ccc(-c3noc(-c4cccs4)n3)c(OC)n2)cc1 | 10 µM [rising, partial curve]
Cc1ccc(NC(=O)CN(C)S(=O)(=O)c2cccc3nsnc23)cc1Cl | 2 µM [falling, partial curve]
CSCC[C@H](NC(=O)OC(C)(C)C)c1nnc(SCC(=O)Nc2c(C)cccc2C)o1 | 12.6 µM [falling, single point]
COC(=O)c1sccc1NC(=O)c1cccnc1 | 12.6 µM [rising, partial curve]
O=C(Nc1cc(C(F)(F)F)ccc1Cl)c1cc(C2CC2)on1 | 0.00398 µM [falling, full curve]
Cc1ccc(-c2ccc(=O)[nH]n2)cc1 | 15.8 µM [rising, single point]
O=c1c2oc3ccccc3c2ncn1Cc1ccccc1Cl | 20 µM [rising, single point]
Cc1ccc2c(C)nc(Nc3nc(CSc4nnnn4-c4ccccc4)cc(=O)[nH]3)nc2c1 | 12.6 µM [rising, single point]
Cc1ccc(-c2nn(CC(C)(C)C)c3ncnc(N)c23)cc1 | 0.126 µM [rising, full curve]
CCC(C)N(C(=O)COC(=O)c1cn(CC)c2nc(C)ccc2c1=O)C1CCS(=O)(=O)C1 (centres undefined) | 25.1 µM [rising, single point]
Cc1ccc2cc3c(NC(=O)c4ccco4)nn(C)c3nc2c1 | 10 µM [rising, partial curve]
CCOC(=O)CC1=NS(=O)(=O)c2ccccc2N1 | 15.8 µM [rising, single point]

An excerpt of these results, in CSV form:
Structure (SMILES),AC50
CSc1nc2c(c(=O)n1-c1ccc(C)cc1)SCC2,"6.31 µM [rising, full curve]"
COc1ccc(CNC(=O)CCS(=O)(=O)c2cccc3nonc23)cc1,"5.01 µM [rising, single point]"
O=C(O)c1cc(-c2ccncc2)nc2ccc(S(=O)(=O)N3CCOCC3)cc12,"25.1 µM [falling, single point]"

Continuation.

Structure (SMILES) | AC50
C=CCc1c(C)[nH]c2ccc(C)cc2c1=O | 0.00316 µM [falling, full curve, poor fit]
O=C1CC(O)(C(F)(F)F)Oc2c1ccc1ccccc21 (centres undefined) | 15.8 µM [falling, single point]
COCCn1c(=O)c(-c2cccc(C#N)c2)nc2cnc(N3CCNCC3)nc21 | 10 µM [rising, partial curve]
Cc1cc(C)c2c3c(sc2n1)C1(CCSCC1)C(C#N)=C(N)O3 | 10 µM [rising, single point]
CN1CC2(C(=O)c3ccccc3)CN(C)CC(C(=O)c3ccccc3)(C1)C2 | 0.126 µM [rising, full curve]
CCc1c(O)nc(SCC(=O)NCc2ccco2)[nH]c1=O | 25.1 µM [rising, single point]
COC(=O)CSc1cc(SCC(=O)OC)c(C#N)c(SCC(=O)OC)c1 | 10 µM [rising, single point]
Cc1ccc(-c2nn(C)c(=O)c3ccccc23)cc1CNS(C)(=O)=O | 10 µM [rising, partial curve]
CC(=O)C(Sc1nc(N2CCOCC2)nc(N2CCOCC2)n1)C(=O)Nc1ccccc1 (centres undefined) | 7.94 µM [falling, partial curve]
COc1ccccc1NC(=O)c1cc2ccc(O)cc2o/c1=N\O | 15.8 µM [rising, single point]
COc1ccc(C(=O)NCc2nnc(SCC(=O)Nc3cc(C)cc(C)c3)o2)cc1OC | 25.1 µM [rising, partial curve, poor fit]
COc1ccc(-c2nn(-c3ccccc3)cc2/C=N/n2cnnc2)cc1OC | 10 µM [rising, single point]
COc1ccc(Oc2ncc3ncc(=O)n(C)c3n2)cc1 | 10 µM [rising, partial curve]
O=C1c2ccccc2C(Nc2ccc3nc(-c4cccnc4)[nH]c3c2)N1Cc1ccco1 (centres undefined) | 10 µM [rising, partial curve]
COc1ccc(-c2cc(C(F)(F)F)nc(N3CCCCC3)n2)cc1OC | 0.501 µM [rising, full curve]
O=C(CSc1ccc2nnc(-c3cccs3)n2n1)N1CCOCC1 | 12.6 µM [rising, single point]
c1ccc2c3nnc4n(c-3nc2c1)CCCS4 | 0.00316 µM [falling, full curve, poor fit]
CCN(CC(=O)Nc1ccc2c(c1)OCCO2)C(=O)c1cccc(S(=O)(=O)N2CCOCC2)c1 | 0.00631 µM [falling, full curve, poor fit]
Cn1c(SCC(=O)c2ccccc2)nc2cccnc21 | 10 µM [rising, single point]
O=C(CN(CC1CCCO1)S(=O)(=O)c1ccc(S(=O)(=O)NC2CC2)cc1)Nc1ccccc1 (centres undefined) | 5.01 µM [falling, single point]
Cc1cc(C(=O)Nc2c(F)cc(F)cc2Br)no1 | 12.6 µM [falling, partial curve]
Cc1noc(C)c1C(=O)Nc1nc(C23CC4CC(CC(C4)C2)C3)cs1 | 20 µM [falling, single point]
